Measured values reported in the supplement of paper PMC6411743.
± gives the standard deviation of the averaged measurements. This is a selection; strong and weak results do not stand in their true shares. Most entries show no effect beyond the scatter of the controls.

Chains of the proteins cited; added tags and fusions are not shown. Lines headed by an entry give the natural chain unless they say otherwise; changes in a name come on top.
UniProt P49588, whole entry: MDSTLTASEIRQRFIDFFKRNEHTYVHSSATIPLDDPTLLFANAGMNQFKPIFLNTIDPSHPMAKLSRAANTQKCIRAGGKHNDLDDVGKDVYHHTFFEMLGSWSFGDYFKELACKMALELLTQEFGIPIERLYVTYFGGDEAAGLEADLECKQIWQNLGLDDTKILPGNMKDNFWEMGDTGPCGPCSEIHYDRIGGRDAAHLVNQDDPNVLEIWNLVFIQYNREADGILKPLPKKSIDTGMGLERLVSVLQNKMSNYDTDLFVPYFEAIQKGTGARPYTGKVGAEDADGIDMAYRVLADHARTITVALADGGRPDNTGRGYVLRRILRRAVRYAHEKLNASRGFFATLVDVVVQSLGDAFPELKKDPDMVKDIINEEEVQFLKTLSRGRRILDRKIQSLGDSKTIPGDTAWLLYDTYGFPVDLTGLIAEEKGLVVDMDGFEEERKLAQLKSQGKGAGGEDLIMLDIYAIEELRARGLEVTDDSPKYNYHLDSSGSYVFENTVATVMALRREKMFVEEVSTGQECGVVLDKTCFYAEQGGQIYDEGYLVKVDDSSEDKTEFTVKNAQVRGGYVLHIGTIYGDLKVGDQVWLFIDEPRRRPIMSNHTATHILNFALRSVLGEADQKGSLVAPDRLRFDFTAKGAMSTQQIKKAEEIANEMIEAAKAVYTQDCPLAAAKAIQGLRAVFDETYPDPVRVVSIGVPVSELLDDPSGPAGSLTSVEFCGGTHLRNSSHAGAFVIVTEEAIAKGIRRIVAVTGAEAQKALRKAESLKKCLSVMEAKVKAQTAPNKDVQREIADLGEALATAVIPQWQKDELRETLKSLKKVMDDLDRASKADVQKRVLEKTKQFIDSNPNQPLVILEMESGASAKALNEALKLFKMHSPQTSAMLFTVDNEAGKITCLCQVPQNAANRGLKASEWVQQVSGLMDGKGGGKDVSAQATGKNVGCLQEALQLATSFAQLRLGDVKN
UniProt P51397: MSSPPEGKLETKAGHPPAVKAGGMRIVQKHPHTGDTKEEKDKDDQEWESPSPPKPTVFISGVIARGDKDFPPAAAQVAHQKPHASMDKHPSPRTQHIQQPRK
UniProt P49368: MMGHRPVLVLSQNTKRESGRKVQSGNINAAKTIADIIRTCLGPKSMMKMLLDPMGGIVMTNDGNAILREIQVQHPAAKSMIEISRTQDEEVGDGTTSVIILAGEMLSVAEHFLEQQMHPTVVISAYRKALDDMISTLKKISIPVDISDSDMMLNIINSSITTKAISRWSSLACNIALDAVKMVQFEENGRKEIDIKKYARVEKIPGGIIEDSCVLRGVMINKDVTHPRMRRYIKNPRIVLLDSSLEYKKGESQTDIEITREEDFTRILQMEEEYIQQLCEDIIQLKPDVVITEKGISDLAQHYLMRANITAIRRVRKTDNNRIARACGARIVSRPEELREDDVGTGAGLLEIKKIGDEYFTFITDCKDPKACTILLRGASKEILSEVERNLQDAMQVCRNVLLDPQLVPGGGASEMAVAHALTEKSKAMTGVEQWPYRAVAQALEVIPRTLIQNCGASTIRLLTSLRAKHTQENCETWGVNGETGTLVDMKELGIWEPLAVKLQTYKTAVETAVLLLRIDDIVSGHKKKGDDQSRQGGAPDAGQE
UniProt P39880: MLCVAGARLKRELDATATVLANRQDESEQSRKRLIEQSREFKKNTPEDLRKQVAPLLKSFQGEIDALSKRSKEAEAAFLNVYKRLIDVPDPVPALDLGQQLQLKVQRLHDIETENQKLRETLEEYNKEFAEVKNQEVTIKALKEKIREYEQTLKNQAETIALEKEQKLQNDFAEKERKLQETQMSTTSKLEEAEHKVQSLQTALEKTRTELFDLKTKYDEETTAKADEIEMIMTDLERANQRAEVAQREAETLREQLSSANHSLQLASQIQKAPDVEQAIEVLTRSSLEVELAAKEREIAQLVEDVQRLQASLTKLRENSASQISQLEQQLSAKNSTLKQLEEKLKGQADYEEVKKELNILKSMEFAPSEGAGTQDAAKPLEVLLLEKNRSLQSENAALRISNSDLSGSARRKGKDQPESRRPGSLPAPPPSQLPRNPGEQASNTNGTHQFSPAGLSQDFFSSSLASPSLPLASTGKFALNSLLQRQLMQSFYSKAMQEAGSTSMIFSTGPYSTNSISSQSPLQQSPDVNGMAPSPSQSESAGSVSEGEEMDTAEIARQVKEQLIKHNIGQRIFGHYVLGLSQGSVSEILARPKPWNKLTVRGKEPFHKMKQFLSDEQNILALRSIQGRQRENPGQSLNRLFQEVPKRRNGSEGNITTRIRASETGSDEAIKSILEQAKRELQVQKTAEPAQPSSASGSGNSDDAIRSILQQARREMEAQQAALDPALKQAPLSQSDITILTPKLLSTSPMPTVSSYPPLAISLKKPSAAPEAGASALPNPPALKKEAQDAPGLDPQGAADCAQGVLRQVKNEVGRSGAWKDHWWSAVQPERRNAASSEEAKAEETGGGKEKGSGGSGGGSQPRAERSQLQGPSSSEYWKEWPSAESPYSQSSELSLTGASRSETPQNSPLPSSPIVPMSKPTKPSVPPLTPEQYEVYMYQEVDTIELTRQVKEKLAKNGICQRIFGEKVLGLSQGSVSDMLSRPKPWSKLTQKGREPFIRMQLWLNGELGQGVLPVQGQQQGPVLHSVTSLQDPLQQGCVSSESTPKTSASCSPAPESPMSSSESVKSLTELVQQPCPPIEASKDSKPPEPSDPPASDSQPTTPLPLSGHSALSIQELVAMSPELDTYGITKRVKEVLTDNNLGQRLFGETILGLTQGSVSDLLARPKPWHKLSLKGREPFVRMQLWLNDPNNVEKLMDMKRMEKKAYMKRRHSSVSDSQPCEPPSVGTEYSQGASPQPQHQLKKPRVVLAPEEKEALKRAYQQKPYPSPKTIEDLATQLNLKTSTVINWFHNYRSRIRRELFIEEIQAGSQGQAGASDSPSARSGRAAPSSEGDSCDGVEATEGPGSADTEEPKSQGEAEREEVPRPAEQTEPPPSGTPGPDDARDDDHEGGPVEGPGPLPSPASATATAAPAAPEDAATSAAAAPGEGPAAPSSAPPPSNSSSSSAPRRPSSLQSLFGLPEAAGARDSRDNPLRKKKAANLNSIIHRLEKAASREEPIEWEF
UniProt Q13948: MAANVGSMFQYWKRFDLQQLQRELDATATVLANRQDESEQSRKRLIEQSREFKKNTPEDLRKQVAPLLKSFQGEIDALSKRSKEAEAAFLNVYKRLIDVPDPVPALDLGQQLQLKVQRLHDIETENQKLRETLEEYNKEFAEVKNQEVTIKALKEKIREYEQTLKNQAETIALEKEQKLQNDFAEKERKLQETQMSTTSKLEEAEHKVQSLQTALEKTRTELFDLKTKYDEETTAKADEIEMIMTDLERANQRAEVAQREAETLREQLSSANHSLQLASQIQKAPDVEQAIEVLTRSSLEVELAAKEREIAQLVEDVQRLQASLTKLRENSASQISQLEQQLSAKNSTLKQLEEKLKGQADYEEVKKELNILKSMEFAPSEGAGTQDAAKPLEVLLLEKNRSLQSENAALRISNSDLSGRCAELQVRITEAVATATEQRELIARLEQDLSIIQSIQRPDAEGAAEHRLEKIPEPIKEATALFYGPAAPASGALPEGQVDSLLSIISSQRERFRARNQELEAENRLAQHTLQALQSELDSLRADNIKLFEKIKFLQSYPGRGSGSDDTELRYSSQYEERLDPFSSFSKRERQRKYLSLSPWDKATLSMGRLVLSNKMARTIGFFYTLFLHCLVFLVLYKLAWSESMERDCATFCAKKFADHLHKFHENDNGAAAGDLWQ
UniProt P37108: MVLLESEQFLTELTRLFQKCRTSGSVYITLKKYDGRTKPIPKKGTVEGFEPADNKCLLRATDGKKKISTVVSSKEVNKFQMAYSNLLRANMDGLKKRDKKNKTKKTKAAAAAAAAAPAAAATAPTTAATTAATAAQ
UniProt P40925: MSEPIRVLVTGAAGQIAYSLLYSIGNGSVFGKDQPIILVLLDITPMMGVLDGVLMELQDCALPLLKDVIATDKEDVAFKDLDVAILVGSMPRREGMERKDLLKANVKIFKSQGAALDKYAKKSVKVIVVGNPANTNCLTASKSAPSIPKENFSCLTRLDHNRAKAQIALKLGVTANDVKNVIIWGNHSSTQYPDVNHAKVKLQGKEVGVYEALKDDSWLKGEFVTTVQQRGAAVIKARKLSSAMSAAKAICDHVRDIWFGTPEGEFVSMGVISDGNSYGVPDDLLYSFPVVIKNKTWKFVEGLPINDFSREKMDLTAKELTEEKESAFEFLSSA
UniProt P43034: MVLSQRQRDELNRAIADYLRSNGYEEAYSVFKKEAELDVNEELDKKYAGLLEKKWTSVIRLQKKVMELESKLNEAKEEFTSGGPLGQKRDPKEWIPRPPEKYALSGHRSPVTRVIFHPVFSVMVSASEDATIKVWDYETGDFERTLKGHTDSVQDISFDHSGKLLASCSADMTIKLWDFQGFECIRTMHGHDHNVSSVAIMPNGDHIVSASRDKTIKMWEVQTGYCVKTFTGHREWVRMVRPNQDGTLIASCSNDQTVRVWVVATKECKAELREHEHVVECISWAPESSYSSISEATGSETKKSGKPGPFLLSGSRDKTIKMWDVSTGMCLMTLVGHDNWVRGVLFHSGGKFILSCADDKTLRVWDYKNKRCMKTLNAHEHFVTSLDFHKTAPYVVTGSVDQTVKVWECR
UniProt P41743, whole entry: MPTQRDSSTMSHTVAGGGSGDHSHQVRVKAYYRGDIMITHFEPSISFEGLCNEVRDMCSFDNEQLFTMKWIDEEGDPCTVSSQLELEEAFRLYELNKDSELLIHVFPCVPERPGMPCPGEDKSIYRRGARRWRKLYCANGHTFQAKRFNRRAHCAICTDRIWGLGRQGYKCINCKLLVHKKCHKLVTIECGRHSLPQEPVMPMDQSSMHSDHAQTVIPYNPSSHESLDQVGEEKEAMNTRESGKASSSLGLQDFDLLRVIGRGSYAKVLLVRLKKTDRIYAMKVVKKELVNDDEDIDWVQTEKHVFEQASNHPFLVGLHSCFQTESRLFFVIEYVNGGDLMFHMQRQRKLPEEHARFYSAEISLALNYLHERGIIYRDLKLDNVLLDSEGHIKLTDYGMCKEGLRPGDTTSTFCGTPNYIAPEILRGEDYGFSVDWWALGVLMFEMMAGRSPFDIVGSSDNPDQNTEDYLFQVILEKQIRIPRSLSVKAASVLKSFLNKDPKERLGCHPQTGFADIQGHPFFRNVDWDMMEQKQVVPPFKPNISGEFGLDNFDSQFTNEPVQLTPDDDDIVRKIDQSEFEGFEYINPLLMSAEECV
UniProt P48426: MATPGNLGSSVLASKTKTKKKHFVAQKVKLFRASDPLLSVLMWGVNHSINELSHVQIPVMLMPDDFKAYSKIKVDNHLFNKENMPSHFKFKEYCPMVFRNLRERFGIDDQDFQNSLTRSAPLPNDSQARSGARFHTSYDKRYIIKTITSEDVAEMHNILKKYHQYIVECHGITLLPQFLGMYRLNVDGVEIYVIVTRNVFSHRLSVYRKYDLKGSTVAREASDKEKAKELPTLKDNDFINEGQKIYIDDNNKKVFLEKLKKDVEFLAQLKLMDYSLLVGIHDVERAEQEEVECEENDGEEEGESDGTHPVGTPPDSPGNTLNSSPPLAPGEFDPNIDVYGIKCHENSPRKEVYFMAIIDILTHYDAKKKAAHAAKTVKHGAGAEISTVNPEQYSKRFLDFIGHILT
UniProt P52735: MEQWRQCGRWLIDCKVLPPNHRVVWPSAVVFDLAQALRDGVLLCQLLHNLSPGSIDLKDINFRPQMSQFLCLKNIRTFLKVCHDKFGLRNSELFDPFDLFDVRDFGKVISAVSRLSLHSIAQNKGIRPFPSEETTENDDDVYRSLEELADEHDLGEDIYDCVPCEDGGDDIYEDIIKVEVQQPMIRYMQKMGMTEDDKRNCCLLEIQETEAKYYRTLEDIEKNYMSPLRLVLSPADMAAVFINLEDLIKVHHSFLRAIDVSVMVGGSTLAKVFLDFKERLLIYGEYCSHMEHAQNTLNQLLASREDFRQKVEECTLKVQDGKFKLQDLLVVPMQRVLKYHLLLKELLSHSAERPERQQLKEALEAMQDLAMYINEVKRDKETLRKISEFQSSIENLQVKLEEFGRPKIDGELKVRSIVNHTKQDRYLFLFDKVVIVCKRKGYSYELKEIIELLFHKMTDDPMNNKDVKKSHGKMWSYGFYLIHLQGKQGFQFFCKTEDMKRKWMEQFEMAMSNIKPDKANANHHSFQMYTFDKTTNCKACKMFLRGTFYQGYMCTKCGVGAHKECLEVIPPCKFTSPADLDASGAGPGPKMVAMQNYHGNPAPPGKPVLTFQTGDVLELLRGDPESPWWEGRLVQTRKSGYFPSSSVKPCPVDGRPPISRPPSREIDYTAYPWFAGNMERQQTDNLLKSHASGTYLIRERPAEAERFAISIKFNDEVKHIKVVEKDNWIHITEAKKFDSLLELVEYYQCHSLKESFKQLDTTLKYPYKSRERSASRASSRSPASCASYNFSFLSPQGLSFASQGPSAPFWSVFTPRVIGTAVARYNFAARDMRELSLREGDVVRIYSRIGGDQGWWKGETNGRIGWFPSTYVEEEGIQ

Each target was assayed with Nc1ncnc2c1ncn2[C@@H]1O[C@H](COP(=O)(O)OP(=O)(O)OP(=O)(O)O)[C@@H](O)[C@H]1O [adenosine triphosphate] (assay: NP40-soluble protein abundance relative to vehicle (solubility fold change) (ratio); higher = more soluble protein in presence of ATP). Conditions: concentration: 0.1mM.
How it was run: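 Jurkat crude lysate (Dounce-homogenised) was treated with eight concentrations from 0.1 to 10 mM for 10 min at room temperature, then 3 min at 37 °C. It was solubilised with 0.8% NP40 and benzonase (60 min, 4 °C) and ultracentrifuged, and the supernatant was TMT-labelled for LC-MS/MS. Intensities were vsn-normalised, and the value is the fold change against the NP40-processed vehicle per replicate, from three independent experiments.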

Target	NP40-soluble protein abundance
UniProt P45985	1.04 ± 0.029
UniProt P49588 and related entries	1.04 ± 0.048
EIF4A3 (UniProt P38919)	1.04 ± 0.093
UniProt P46934-4	1.04 ± 0.034
UniProt P49916 and related entries	1.07 ± 0.047
UniProt P51178 and related entries	1.03 ± 0.051
DAP (UniProt P51397)	0.92 ± 0.024
ALDH9A1 (UniProt P49189)	1.03 ± 0.066
CCT3 (UniProt P49368)	0.981 ± 0.041
UniProt P52888 and related entries	1.04 ± 0.048
ARHGDIB (UniProt P52566)	1.02 ± 0.059
CCNH (UniProt P51946)	1.02 ± 0.042
RBM5 (UniProt P52756)	1.02 ± 0.041
DHPS (UniProt P49366)	1.03 ± 0.03
P39880-3|Q13948 and related entries (UniProt Q13948+P39880)	0.96 ± 0.039
TAGLN2 (UniProt P37802)	0.826 ± 0.051
SRP14 (UniProt P37108)	0.853 ± 0.07
GDI2 (UniProt P50395)	1.05 ± 0.091
PIK3CB (UniProt P42338)	1.07 ± 0.16

Target	NP40-soluble protein abundance
HTT (UniProt P42858)	1.05 ± 0.025
UniProt P40925 and related entries	1 ± 0.084
UniProt P50219 and related entries	0.83 ± 0.21
UniProt P46020-2	1.05 ± 0.033
PAFAH1B1 (UniProt P43034)	1.08 ± 0.098
NAMPT (UniProt P43490)	1.05 ± 0.087
PGM1 (UniProt P36871)	1.02 ± 0.087
PRCP (UniProt P42785)	0.928 ± 0.013
UniProt P41134 and related entries	0.846 ± 0.14
UniProt P50851 and related entries	1.02 ± 0.049
UniProt P51812	1.11 ± 0.11
UniProt P41743	1.05 ± 0.079
UniProt P49641 and related entries	1.02 ± 0.065
UniProt P49407-2|P49407	1.02 ± 0.021
UniProt P49750-3|P49750-4	1.01 ± 0.022
PIP4K2A (UniProt P48426)	0.98 ± 0.052
UniProt P52735 and related entries	0.973 ± 0.061
CAPG (UniProt P40121)	1.03 ± 0.039
UniProt P37275-2|P37275-5	0.967 ± 0.023

Same assay, conditions: concentration: 0.5mM

Target	NP40-soluble protein abundance
UniProt P45985	1.05 ± 0.057
UniProt P49588 and related entries	1.04 ± 0.065
EIF4A3 (UniProt P38919)	1.06 ± 0.06
UniProt P46934-4	1.044 ± 0.0034
UniProt P49916 and related entries	1.1 ± 0.06
UniProt P51178 and related entries	1.04 ± 0.083
DAP (UniProt P51397)	0.938 ± 0.13
ALDH9A1 (UniProt P49189)	1.04 ± 0.06
CCT3 (UniProt P49368)	0.982 ± 0.071
UniProt P52888 and related entries	1.02 ± 0.063
ARHGDIB (UniProt P52566)	1.04 ± 0.057
CCNH (UniProt P51946)	1.04 ± 0.05
RBM5 (UniProt P52756)	1.106 ± 0.011
DHPS (UniProt P49366)	1.03 ± 0.03
P39880-3|Q13948 and related entries (UniProt Q13948+P39880)	0.957 ± 0.034
TAGLN2 (UniProt P37802)	0.845 ± 0.083
SRP14 (UniProt P37108)	0.899 ± 0.14
GDI2 (UniProt P50395)	1.04 ± 0.049
PIK3CB (UniProt P42338)	1.14 ± 0.11

Target	NP40-soluble protein abundance
HTT (UniProt P42858)	1.01 ± 0.017
UniProt P40925 and related entries	1.03 ± 0.061
UniProt P50219 and related entries	0.855 ± 0.17
UniProt P46020-2	1.05 ± 0.069
PAFAH1B1 (UniProt P43034)	1.02 ± 0.029
NAMPT (UniProt P43490)	1.06 ± 0.1
PGM1 (UniProt P36871)	1.03 ± 0.05
PRCP (UniProt P42785)	0.917 ± 0.068
UniProt P41134 and related entries	0.88 ± 0.08
UniProt P50851 and related entries	1 ± 0.024
UniProt P51812	1.06 ± 0.062
UniProt P41743	1.06 ± 0.077
UniProt P49641 and related entries	1.06 ± 0.084
UniProt P49407-2|P49407	1.031 ± 0.005
UniProt P49750-3|P49750-4	1.08 ± 0.031
PIP4K2A (UniProt P48426)	1.03 ± 0.07
UniProt P52735 and related entries	0.976 ± 0.043
CAPG (UniProt P40121)	1.05 ± 0.048
UniProt P37275-2|P37275-5	0.987 ± 0.048
